System: U-2OS cells
Assay: cell viability (CCK8), protein delivery combined with TAS-120 or IWR-1, U-2OS
Assay type: cell-based, human
Conditions: LLPSE-p53 (SEQ ID NO.3) protein 0.5-2 μM 24 h, then inhibitor 5-20 μM 24 h; compared with inhibitor plus buffer
Description: The above system was sterilized with a 0.22 μm filter membrane. • 4. The complete medium in the well plate was sucked and discarded, and the above protein delivery system was added, the plate was then placed in an incubator for culture for 24 h. • 5. […] Cell viability was measured by a CCK8 method and with a M5 microplate reader. • 7. Graphpad5 software was used for data processing and one-way ANOVA method was used for statistical analysis.

C=CC(=O)N1CC[C@H](n2nc(C#Cc3cc(OC)cc(OC)c3)c3c(N)ncnc32)C1 [TAS-120] was tested, and the “killing of U-2OS cells by the inhibitor when combined with LLPSE-p53 protein” value was “significantly promotes TAS-120 or IWR-1 to kill U-2OS cells”.

Reference: US20240279294A1, “p53 VARIANT WITH IMPROVED LIQUID-LIQUID PHASE SEPARATION ABILITY AND ACTIVITY AND USE THEREOF” (Zhejiang University, priority 2023, published 2024)
